Measurements taken from the supplement of paper PMC10849652.
The list shows a part of the results.

By UniProt entry, the sequences of proteins in these tests, tags left out. Where a name states a change or a piece, a line headed by the entry shows the natural chain unless it says otherwise.
UniProt Q9Y646: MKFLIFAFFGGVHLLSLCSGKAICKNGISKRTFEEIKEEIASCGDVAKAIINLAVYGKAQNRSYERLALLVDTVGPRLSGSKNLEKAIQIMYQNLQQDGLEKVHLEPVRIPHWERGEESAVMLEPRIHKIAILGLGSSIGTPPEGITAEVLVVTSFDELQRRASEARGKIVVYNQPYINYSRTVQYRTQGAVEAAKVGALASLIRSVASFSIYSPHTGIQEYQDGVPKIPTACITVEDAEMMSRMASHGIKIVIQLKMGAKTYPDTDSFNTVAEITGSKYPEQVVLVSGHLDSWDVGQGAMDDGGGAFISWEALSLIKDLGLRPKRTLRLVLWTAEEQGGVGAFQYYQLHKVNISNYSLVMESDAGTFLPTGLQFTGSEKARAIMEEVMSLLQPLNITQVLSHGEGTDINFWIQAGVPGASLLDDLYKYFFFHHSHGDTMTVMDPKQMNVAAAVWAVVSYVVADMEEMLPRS
UniProt Q9P000, whole entry, looked up: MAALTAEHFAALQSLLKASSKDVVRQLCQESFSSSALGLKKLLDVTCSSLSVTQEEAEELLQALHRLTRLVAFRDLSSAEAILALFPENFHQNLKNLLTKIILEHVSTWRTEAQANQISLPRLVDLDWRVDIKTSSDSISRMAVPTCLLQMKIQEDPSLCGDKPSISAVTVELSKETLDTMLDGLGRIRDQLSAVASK
UniProt Q7L5N1: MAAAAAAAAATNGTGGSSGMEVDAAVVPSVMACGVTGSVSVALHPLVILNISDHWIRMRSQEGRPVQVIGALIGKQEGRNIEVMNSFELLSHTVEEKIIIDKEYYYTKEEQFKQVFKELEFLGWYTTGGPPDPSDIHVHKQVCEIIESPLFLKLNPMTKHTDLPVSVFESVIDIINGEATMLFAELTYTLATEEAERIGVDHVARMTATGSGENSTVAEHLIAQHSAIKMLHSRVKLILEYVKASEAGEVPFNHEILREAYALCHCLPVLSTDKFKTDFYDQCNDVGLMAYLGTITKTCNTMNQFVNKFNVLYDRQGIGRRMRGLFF
UniProt Q5RI15: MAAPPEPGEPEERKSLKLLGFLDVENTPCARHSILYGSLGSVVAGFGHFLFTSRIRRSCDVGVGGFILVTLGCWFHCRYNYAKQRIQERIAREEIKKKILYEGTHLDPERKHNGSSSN
UniProt Q9ULM6, whole entry, looked up: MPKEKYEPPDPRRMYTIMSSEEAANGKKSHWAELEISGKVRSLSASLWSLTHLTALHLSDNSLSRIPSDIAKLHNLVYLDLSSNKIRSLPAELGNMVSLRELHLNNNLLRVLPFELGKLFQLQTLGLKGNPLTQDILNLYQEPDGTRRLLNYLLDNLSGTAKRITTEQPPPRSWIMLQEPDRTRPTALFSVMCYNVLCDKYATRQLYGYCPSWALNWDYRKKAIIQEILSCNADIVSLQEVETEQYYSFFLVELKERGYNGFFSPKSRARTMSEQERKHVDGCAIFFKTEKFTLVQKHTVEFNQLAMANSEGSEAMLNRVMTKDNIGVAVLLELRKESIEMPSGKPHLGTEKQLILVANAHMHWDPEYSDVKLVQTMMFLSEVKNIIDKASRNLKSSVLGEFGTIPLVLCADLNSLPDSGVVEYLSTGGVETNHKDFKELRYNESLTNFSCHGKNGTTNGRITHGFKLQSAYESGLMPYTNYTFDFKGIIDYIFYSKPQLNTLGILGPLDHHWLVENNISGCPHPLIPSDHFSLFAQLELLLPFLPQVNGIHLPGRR
UniProt Q99439: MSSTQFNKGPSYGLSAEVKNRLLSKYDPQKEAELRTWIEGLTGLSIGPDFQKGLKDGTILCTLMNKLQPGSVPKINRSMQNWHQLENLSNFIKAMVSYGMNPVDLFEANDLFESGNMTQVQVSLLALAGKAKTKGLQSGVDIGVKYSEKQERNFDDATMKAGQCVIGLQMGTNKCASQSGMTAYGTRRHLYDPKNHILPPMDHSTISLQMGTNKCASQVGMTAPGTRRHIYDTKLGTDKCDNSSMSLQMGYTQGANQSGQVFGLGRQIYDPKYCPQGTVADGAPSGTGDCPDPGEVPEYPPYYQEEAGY
UniProt Q5HYK3: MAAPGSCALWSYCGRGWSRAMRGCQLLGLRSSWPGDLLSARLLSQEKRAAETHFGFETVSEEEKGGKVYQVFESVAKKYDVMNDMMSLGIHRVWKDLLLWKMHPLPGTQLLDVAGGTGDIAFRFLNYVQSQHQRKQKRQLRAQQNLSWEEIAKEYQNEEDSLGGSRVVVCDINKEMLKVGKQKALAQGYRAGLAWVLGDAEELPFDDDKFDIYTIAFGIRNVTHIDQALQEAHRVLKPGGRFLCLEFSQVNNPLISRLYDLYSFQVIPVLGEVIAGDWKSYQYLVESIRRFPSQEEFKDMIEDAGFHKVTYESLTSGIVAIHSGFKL
UniProt Q9NX08, whole entry, looked up: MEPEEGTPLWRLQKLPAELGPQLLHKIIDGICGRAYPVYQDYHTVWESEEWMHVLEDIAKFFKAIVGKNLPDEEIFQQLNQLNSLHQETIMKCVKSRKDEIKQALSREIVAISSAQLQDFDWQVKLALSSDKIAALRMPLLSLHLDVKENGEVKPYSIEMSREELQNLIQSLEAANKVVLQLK
UniProt Q6P4Q7: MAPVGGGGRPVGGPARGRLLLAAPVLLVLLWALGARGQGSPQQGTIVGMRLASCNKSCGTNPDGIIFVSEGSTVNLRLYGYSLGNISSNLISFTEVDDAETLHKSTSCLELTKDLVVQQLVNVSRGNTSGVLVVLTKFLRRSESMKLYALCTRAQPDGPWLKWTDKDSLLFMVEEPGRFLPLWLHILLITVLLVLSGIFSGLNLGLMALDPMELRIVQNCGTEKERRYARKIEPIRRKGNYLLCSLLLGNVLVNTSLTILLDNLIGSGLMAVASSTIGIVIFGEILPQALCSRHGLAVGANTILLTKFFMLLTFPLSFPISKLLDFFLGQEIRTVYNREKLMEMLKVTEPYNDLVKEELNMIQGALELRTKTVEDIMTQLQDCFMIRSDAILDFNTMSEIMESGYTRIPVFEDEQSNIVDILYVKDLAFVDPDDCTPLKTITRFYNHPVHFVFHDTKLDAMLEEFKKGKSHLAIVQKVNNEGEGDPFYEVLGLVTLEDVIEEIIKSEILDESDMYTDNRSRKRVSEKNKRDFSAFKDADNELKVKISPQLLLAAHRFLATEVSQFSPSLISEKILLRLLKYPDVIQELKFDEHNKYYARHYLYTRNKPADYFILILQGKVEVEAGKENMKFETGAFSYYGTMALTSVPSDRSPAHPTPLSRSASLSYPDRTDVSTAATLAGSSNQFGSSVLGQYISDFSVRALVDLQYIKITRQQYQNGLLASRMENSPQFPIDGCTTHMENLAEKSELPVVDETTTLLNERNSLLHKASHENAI
UniProt Q86VU5: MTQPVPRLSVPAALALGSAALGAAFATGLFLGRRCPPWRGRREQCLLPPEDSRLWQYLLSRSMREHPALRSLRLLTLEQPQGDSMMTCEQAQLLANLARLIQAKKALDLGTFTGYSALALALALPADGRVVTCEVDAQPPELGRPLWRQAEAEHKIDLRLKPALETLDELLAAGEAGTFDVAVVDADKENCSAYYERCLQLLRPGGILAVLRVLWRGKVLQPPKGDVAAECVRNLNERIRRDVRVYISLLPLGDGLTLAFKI
UniProt P39060, whole entry, looked up: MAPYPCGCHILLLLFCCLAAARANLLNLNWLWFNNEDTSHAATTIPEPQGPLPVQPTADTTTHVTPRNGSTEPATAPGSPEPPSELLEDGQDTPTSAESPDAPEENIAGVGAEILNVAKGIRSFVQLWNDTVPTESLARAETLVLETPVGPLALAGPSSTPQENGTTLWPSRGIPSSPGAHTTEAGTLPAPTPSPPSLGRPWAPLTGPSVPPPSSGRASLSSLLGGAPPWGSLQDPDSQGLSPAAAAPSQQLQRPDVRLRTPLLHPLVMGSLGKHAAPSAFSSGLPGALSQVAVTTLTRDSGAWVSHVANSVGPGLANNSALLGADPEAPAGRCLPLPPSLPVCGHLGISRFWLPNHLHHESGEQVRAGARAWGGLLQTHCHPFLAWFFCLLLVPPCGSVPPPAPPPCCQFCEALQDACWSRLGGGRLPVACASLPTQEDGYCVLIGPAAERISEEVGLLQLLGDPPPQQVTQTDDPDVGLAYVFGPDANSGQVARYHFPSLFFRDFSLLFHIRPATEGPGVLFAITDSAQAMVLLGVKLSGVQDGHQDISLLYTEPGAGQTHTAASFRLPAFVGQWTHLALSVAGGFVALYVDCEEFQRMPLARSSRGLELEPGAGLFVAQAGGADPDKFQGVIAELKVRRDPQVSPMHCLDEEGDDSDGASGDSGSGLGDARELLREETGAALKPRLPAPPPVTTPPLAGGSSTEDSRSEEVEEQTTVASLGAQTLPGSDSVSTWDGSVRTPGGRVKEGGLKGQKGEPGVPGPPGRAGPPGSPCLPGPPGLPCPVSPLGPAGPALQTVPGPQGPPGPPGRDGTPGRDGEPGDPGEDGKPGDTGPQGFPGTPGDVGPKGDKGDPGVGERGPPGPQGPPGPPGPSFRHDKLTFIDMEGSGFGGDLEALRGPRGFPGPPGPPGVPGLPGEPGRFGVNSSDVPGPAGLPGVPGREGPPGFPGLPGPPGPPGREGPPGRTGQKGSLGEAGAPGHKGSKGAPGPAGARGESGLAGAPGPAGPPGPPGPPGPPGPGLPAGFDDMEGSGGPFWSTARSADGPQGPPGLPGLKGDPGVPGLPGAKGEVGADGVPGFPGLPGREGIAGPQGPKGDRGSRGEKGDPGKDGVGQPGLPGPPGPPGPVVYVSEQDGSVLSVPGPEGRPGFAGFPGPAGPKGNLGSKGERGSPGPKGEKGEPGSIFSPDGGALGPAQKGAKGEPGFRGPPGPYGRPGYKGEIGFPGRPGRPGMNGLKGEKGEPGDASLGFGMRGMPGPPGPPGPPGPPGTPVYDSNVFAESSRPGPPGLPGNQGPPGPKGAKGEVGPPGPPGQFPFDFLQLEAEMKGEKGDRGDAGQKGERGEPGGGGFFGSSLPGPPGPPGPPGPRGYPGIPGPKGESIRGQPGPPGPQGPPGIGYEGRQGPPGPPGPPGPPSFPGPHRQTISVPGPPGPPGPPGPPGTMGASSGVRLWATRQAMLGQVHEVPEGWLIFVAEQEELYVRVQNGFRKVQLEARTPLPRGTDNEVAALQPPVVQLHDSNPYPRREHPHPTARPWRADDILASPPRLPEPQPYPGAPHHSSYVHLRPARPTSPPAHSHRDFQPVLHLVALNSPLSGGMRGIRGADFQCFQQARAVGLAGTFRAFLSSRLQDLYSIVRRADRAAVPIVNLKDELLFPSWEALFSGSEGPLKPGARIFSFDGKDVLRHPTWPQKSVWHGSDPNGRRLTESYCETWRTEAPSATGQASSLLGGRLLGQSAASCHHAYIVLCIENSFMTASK
UniProt Q99627: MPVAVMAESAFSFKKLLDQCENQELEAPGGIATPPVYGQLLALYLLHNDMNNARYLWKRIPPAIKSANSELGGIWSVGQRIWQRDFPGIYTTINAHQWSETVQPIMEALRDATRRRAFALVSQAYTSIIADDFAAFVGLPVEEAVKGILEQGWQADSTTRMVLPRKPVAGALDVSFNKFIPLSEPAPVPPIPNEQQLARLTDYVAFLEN
UniProt Q49B96: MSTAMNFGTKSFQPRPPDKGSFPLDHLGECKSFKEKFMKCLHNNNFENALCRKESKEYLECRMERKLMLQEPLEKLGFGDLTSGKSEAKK
UniProt Q96JB2: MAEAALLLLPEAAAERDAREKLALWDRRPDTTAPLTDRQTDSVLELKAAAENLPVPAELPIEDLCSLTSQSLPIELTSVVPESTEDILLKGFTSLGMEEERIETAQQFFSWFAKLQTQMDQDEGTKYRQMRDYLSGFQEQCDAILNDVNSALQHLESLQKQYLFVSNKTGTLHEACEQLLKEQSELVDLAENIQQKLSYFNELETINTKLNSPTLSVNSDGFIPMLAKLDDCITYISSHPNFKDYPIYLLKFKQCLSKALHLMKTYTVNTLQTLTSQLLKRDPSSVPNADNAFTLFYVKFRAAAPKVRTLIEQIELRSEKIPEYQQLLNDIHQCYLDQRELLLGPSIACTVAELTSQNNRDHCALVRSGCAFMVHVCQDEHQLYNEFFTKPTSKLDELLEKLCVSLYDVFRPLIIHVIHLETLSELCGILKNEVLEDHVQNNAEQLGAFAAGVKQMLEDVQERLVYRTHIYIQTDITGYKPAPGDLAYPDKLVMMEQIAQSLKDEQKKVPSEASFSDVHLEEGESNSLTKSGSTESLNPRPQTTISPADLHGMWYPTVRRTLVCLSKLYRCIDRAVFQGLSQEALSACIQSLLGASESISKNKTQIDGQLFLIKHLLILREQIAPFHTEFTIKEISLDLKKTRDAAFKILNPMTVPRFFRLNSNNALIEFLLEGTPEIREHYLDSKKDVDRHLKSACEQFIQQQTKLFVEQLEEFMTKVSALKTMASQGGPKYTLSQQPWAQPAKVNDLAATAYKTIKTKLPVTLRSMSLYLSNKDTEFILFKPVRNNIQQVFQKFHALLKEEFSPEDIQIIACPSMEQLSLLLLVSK
UniProt Q9Y2R0: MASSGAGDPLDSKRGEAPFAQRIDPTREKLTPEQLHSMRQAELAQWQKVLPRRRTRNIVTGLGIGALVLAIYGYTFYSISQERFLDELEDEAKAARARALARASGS

Tests used:
Experiment in all cases: log2 fold change, soluble protein after heating vs DMSO (PISA); higher = thermal stabilisation; K562 lysate, 10 uM; active = over 0.2 and 3.5 SD of the protein, either way, in both replicates (recomputed)
ibrutinib = compound: C=CC(=O)N1CCC[C@@H](n2nc(-c3ccc(Oc4ccccc4)cc3)c3c(N)ncnc32)C1 [ibrutinib]
In short: (§1)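 K562 pellets were dounce-homogenised in PBS pH 7.4 with 1 mM MgCl2, and the crude extract at 1 mg/mL protein was treated with 10 μM compound for 30 min. Aliquots were heated for 3 min across 48°C-58°C, pooled, and brought to 0.5% NP-40 at 4°C; soluble protein was the supernatant after 21,000xg for 90 min. Soluble protein was quantified by TMTpro 16plex LC-MS/MS with channel sums equalised, and reported as log2 fold change in thermal stability against DMSO controls, with values from duplicates.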

[1] = compound: CC(=O)c1cnc2ccc(-c3cc(Cl)c(O)c(Cl)c3)nc2c1N[C@H]1CC[C@H](CN(C)C)CC1
In short: as §1

ralimetinib = compound: CC(C)(C)Cn1c(N)nc2ccc(-c3[nH]c(C(C)(C)C)nc3-c3ccc(F)cc3)nc21 [ralimetinib]
In short: as §1

[2] = compound: CC(C)(O)CC(=O)NCCn1ccc2ncnc(Nc3ccc(Oc4cccc(C(F)(F)F)c4)c(Cl)c3)c21
In short: as §1

[3] = compound: CC(C)C1=C2N=C(C=C(N2N=C1)NCC3=CC=CC=C3)NCCCCCCN
In short: as §1

[4] = compound: CC1=C(C(CC(=O)N1)C2=CC=C(C=C2)C(F)(F)F)C(=O)NC3=C(C=C4C(=C3)C=NN4)F
In short: as §1

[5] = compound: CC1=C(C2=C(C=C1)C(=O)C3=CC=CC=C3N2CCCN)C
In short: as §1

[6] = compound: CC1=C(C=C(C=C1)NC(=O)C2=CC(=CC=C2)C(C)(C)C#N)NC3=CC4=C(C=C3)N=CN(C4=O)C
In short: as §1

[7] = compound: CC1=C(C=C(C=C1)NC(=O)C2=CC(=CC=C2)N(C)C)NC(=O)C3=CC=C(C=C3)O
In short: as §1

[8] = compound: CC1=CC=C(C=C1)SC2=C3C=C(SC3=CN=C2)C(=O)N
In short: as §1

Measured: log2 fold change

CPQ (UniProt Q9Y646)
inactive: ibrutinib 0.046 | [1] -0.028 | ralimetinib -0.004 | [2] -0.031 | [3] -0.026 | [4] 0.065 | [5] -0.024 | [6] 0.006 | [7] -0.07 | [8] 0.008

COMMD9 (UniProt Q9P000)
inactive: ibrutinib 0.023 | [1] -0.052 | ralimetinib 0.024 | [2] -0.054 | [3] 0.058 | [4] -0.14 | [5] -0.035 | [6] 0.065 | [7] -0.014 | [8] 0.052

COPS6 (UniProt Q7L5N1)
inactive: ibrutinib 0.036 | [1] 0.021 | ralimetinib -0.011 | [2] 0.009 | [3] -0.071 | [4] -0.038 | [5] 0.031 | [6] 0.045 | [7] -0.026 | [8] 0.036

COX20 isoform 2 (UniProt Q5RI15)
inactive: ibrutinib 0.28 | [1] 0.017 | ralimetinib 0.084 | [2] 0.032 | [3] -0.003 | [4] -0.007 | [5] -0.04 | [6] 0.003 | [7] 0.001 | [8] -0.023

CNOT6 (UniProt Q9ULM6)
inactive: ibrutinib 0.033 | [1] 0.118 | ralimetinib 0.057 | [2] -0.027 | [3] -0.019 | [4] 0.023 | [5] 0.019 | [6] 0.02 | [7] 0.025 | [8] -0.019

CNN2 (UniProt Q99439)
inactive: ibrutinib -0.005 | [1] 0 | ralimetinib -0.038 | [2] 0.014 | [3] 0.017 | [4] 0.011 | [5] 0.016 | [6] 0.007 | [7] -0.018 | [8] -0.024

COQ5 (UniProt Q5HYK3)
inactive: ibrutinib -0.004 | [1] -0.021 | ralimetinib 0.023 | [2] -0.067 | [3] 0.06 | [4] 0.018 | [5] 0.07 | [6] 0.028 | [7] 0.058 | [8] -0.05

COMMD8 (UniProt Q9NX08)
inactive: ibrutinib 0.22 | [1] -0.064 | ralimetinib 0.03 | [2] -0.018 | [3] 0.006 | [4] -0.002 | [5] -0.026 | [6] 0.077 | [7] 0.042 | [8] 0.068

CNNM4 (UniProt Q6P4Q7)
inactive: ibrutinib 0.039 | [1] -0.034 | ralimetinib 0.124 | [2] -0.079 | [3] 0.035 | [4] -0.248 | [5] -0.017 | [6] 0.131 | [7] 0.007 | [8] -0.002

Taken from above (2 entries):
CNN2 (UniProt Q99439)
inactive: ibrutinib -0.005 | [1] 0 | ralimetinib -0.038 | [2] 0.014 | [3] 0.017 | [4] 0.011 | [5] 0.016 | [6] 0.007 | [7] -0.018 | [8] -0.024

COQ5 (UniProt Q5HYK3)
inactive: ibrutinib -0.004 | [1] -0.021 | ralimetinib 0.023 | [2] -0.067 | [3] 0.06 | [4] 0.018 | [5] 0.07 | [6] 0.028 | [7] 0.058 | [8] -0.05

The results go on:

COMTD1 (UniProt Q86VU5)
inactive: ibrutinib 0.008 | [1] 0.07 | ralimetinib -0.06 | [2] -0.088 | [3] -0.1 | [4] -0.055 | [5] 0.002 | [6] 0.057 | [7] 0.062 | [8] 0.014

COL18A1 (UniProt P39060)
inactive: ibrutinib 0.021 | [1] -0.016 | ralimetinib -0.043 | [2] 0.04 | [3] -0.045 | [4] 0.041 | [5] 0.07 | [6] -0.051 | [7] 0.027 | [8] -0.076

COPS8 (UniProt Q99627)
inactive: ibrutinib 0.104 | [1] -0.016 | ralimetinib 0.062 | [2] -0.042 | [3] -0.003 | [4] -0.045 | [5] 0 | [6] 0.04 | [7] 0.019 | [8] -0.001

COX19 (UniProt Q49B96)
inactive: ibrutinib 0.061 | [1] 0.021 | ralimetinib 0.009 | [2] -0.041 | [3] 0.008 | [4] 0.077 | [5] -0.035 | [6] -0.025 | [7] -0.017 | [8] 0.015

COG3 (UniProt Q96JB2)
inactive: ibrutinib 0.026 | [1] -0.008 | ralimetinib 0.052 | [2] -0.042 | [3] -0.04 | [4] 0.006 | [5] -0.019 | [6] 0.02 | [7] 0.044 | [8] 0.02

COA3 (UniProt Q9Y2R0)
inactive: ibrutinib 0.089 | [1] -0.028 | ralimetinib -0.022 | [2] -0.06 | [3] -0.01 | [4] -0.004 | [5] -0.018 | [6] 0.008 | [7] 0.008 | [8] -0.008
